Source: paper PMC3688854
Results are given in words; binding and its absence hold for the method and conditions named. For some assays here: In cells and extracts the contact can be indirect. For some assays here: Binding calls can cover weak binding; strength is not graded here. For some assays here: Sequences can lack the tags named with a protein.

By UniProt entry, the sequences of proteins in these tests, tags left out. Where a name states a change or a piece, a line headed by the entry shows the natural chain unless it says otherwise.
UniProt D2D3G0: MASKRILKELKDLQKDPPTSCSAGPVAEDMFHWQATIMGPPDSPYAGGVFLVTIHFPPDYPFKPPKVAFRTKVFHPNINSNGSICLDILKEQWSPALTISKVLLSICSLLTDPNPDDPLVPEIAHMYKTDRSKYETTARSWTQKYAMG

B1: RHA2a (At1g15100), E3 ligase, prey in pDEST22 (enzyme, UniProt Q9ZT50 1-155)
chain: MGLQGQLSDVSSDSIPLMLLSLLAVFINHLRSFLLRLTSKSNPNLPVDDVSIASGLANIIVLADQLSLNRLFSYRCGDGGGGGSDCVVCLSKLKEGEEVRKLECRHVFHKKCLEGWLHQFNFTCPLCRSALVSDDCVSKTQRSVGRDLISCFSLH
B2: XERICO (At2g04240), E3 ligase, prey in pDEST22 (enzyme, UniProt Q9SI09 1-162)
chain: MGLSSLPGPSEGMLCVILVNTALSISIVKGIVRSFLGIVGISLSPSSSSPSSVTVSSENSSTSESFDFRVCQPESYLEEFRNRTPTLRFESLCRCKKQADNECSVCLSKFQGDSEINKLKCGHLFHKTCLEKWIDYWNITCPLCRTPLVVVPEDHQLSSNVW
B3: SDIR1 (At3g55530), E3 ligase, prey in pDEST22 (enzyme, UniProt Q9M2S6 1-273)
chain: MSFVFRGSRGDLESGFSGGFLPERRAMRVHGARPVNSNSLAFLVTVLLLFMILNSHQMPPNFLLWLVLGVFLMATTLRMYATCQQLQAHAQAQAAAASGLFSHTELRLHVPPSIALATRGRLQGLRLQLALLDREFDDLDYETLRALDSDNVSTTSMSEEEINALPVHKYKVLDPENGCSLAKQASTSSSAEKMLDSANESKKGTEDELTCSVCLEQVTVGEIVRTLPCLHQFHAGCIDPWLRQQGTCPVCKFRAHSGWQEQDEIDDDASDMV
B4: At3g09770, C3HC4-type RING E3 ligase, prey in pDEST22 (enzyme, UniProt Q9S752 1-388)
chain: MGNISSSGGEGRRRRRRNHTAAPPPPPPPPSSSLPPPPLPTEIQANPIVFAAVTPYPNPNPNPVYQYPASYYHHPPPGAMPLPPYDHHLQHHPPHPYHNHSWAPVAMARYPYAGHMMAQPTPYVEHQKAVTIRNDVNLKKESLRLEPDPDNPGRFLVSFTFDATVSGRISVIFFAKESEDCKLTATKEDILPPITLDFEKGLGQKFKQSSGSGIDFSVFEDVELFKAAADTEIYPLAVKAEAAPSGGENEEEERSGSKNAQITQAVYEKDKGEIKIRVVKQILWVNGTRYELQEIYGIGNTVEGDDDSADDANDPGKECVICLSEPRDTTVLPCRHMCMCSGCAKVLRFQTNRCPICRQPVERLLEIKVHGNNGSGNNTGQGETVEQE
B5: At5g03200, C3HC4-type RING E3 ligase, prey in pDEST22 (enzyme, UniProt Q9LYW5 1-337)
chain: MGNLISLIFCCGRRQRSNIPPAMETAPLELPPNRFVFAAVPPYLNPNPNYVDQYPGNCLPPPVTEPPMLPYNFNHLHHYPPNSYQLPHPLFHGGRYPILPPPTYVHQKAVTIRNDVNLKKKTLTLIPDPENPNRLLVSFTFDASMPGRITVVFFATEDAECNLRATKEDTLPPITFDFGEGLGQKFIQSSGTGIDLTAFKDSELFKEVDTDVFPLAVKAEATPAEEGKSGSTNVQITQVVYTKEKGEIKIEVVKQILWVNKRRYELLEIYGIENTVDGSDEGKECVVCLSEPRDTTVLPCRHMCMCSGCAKALRFQTNLCPVCRQPVEMLLEINKNG
B6: At3g53410, C3HC4-type RING E3 ligase, prey in pDEST22 (enzyme, UniProt Q9LFH6 1-299)
chain: MGNVISGGSRPENHRDRTSPPYPNPNAQYQGNYPSPYQDCARYPYGEMASPVQYVEHQEAVTIRNDINLKKETLRLEPDEQNPGKFLLSFTFDASVPGSITVMFFAKEGKDCNLIATKEDLFPSTQVSFAKGLEQRFKQACGTGIDFSDMSEADLVEANETDVYHVAVKAEVVSEDDHPESGTPNRQITHVVLEKDHKGEYKARVVKQILWVNGNRYVLQEIYGIGNTVDDNGEDANERGKECVICLSEPRDTTVLPCRHMCMCSGCAKLLRFQTNLCPICRQPVDRLLEITVNNNDRN
B7: YFP^C-AtVBP1 (enzyme, UniProt Q84ME1 1-378)
chain: MGISLSKRRRDNNNNHHHPHHNPPYYYSDPPPQQPPPQNGYSYSHNYPVSTPQLSLPPPPAQPPSSSQPPPSQISYRPYGQNYHQNQYYPQQAPPYFTGYHHNGFNPMMRPVYFGPTPVAVMEPPAPYVEHQTAKKVKNDVNVNKATVRLVADDLNPGHYLVSFVFDALFDGSFTIIFFGEEESKCTIVPHLPEAFPPIKVPFQKGAGQKFLQAPGTGIDLGFFSLDDLSKPSPEEVYPLVISAETVISPSSVSEEPLVHKQITQAVLEKTNDGSFKVKVMKQILWIEGERYELQELYGIDNSITQGTAASGLEDTGGKECVICLTEPKDTAVMPCRHLCLCSDCAEELRFQTNKCPICRQPIHELVKIKVESSDEQH
B8: Arabidopsis bZIP63, BiFC fusions (protein, UniProt B9DGI8 1-314)
chain: MEKVFSDEEISGNHHWSVNGMTSLNRSASEWAFNRFIQESSAAADDGESTTACGVSVSSPPNVPVDSEEYRAFLKSKLNLACAAVAMKRGTFIKPQDTSGRSDNGGANESEQASLASSKATPMMSSAITSGSELSGDEEEADGETNMNPTNVKRVKRMLSNRESARRSRRRKQAHLSELETQVSQLRVENSKLMKGLTDVTQTFNDASVENRVLKANIETLRAKVKMAEETVKRLTGFNPMFHNMPQIVSTVSLPSETSNSPDTTSSQVTTPEIISSGNKGKALIGCKMNRTASMRRVESLEHLQKRIRSVGDQ

Each binder was assayed against VrUBC1 (Vigna radiata UBC 1), fused to the DNA-binding domain in pDEST32 (mung bean (Vigna radiata)) (assay: two-hybrid; pDEST32 (bait, BD) / pDEST22 (prey, AD) in yeast MaV203; growth on SD/-Trp/-Leu/-Ura, X-beta-Gal and beta-galactosidase assay with ONPG; 30 C).

Binder	binding
B1	no binding
B2	no binding
B3	no binding
B4	no binding
B5	no binding
B6	no binding

The binders below were run against YFP^N-VrUBC1 (mung bean (Vigna radiata)) (UniProt D2D3G0) (assay: split reporter; BiFC with pE-SPYNE/pE-SPYCE constructs coexpressed in N. benthamiana leaves by Agrobacterium infiltration with the p19 silencing plasmid; YFP fluorescence in protoplasts by confocal microscopy).

Binder	binding
B7	binds
B8	no binding
